According to article PMC7658486:

T1: bovine (full-length) IL-2Rα (cattle (Bos taurus)) (UniProt P12342)
T1 sequence: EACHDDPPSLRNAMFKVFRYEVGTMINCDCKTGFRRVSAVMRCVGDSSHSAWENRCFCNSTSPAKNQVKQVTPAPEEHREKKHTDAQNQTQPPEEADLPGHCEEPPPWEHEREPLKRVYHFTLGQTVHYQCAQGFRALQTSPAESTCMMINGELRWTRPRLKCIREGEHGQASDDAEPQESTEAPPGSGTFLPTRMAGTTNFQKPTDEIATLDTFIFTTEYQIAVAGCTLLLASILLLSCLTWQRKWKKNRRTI


Legend:
Assay in all cases: flow cytometry on cells; live HEK293T cells co-transfected for a FLAG-tagged cytokine and a full-length (transmembrane) receptor alpha chain; two days after transfection stained with anti-FLAG M2 mAb; cytokine considered bound if the percentage of anti-FLAG-labeled cells was higher than in cells transfected for the cytokine alone
[1] = target: T1, bovine (full-length) IL-2Rα (cattle (Bos taurus))
[2] = target: bovine (full-length) IL-15Rα (cattle (Bos taurus))
[3] = target: trout (full-length) IL-15Rα (rainbow trout (Oncorhynchus mykiss))

Row | binding [1] | binding [2] | binding [3] | Molecule
1 | no binding |  |  | bovine IL-15L, FLAG-tagged (cattle (Bos taurus)) (ligand)
2 |  | no binding | no binding | bovine IL-2, FLAG-tagged (ligand, UniProt P05016 21-155) APTSSSTGNTMKEVKSLLLDLQLLLEKVKNPENLKLSRMHTFDFYVPKVNATELKHLKCLLEELKLLEEVLNLAPSKNLNPREIKDSMDNIKRIVLELQGSETRFTCEYDDATVNAVEFLNKWITFCQSIYSTMT

Results are given in words; binding and its absence hold for the method and conditions named. For part of these data: Tags and fused reporters may be left off the sequences shown.
